Some of the results follow. Shown are side measurements of this screen, not its main read-out; they come without a call. Most of these compounds were active or inconclusive in the main read-out, so they are no random draw. Words in brackets tell the shape of the fitted curve; partial curves, single points and poor fits give uncertain potencies.
Assay: qHTS Assay for Lipid Storage Modulators in Drosophila S3 Cells;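 on cell number change: cells counted by Cell Tracker Red CMTPX staining in the red channel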
Conditions: BODIPY lipid droplet fluorescence, 18-24 h; for cell number change: measured here: cell count max response, cells fed with added oleic acid
Summary of the method: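 Drosophila S3 cells loaded with oleic acid (400 uM, as added) and compounds at several concentrations; lipid droplets imaged by 488-nm laser-scanning cytometry, 500–530 nm intensity and object ratio to cell channel. Percent activity normalized to 20 uM Triacsin C.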

[1] = measured here: cell number channel AC50, cells fed with added oleic acid
[2] = measured here: lipid fluorescence (Fed channel) AC50, cells fed with added oleic acid

SMILES | cell number change | AC50 [1] | AC50 [2]
Cn1c(-c2ccc(F)cc2)cnc1SCC(=O)Nc1ccccc1N1CCOCC1 | 109% | 2.59 µM [rising, full curve] | 2.59 µM [rising, full curve]
Cc1ccc(-c2nnc(COc3cccc(-n4cnnn4)c3)o2)cc1 | -18.9% | 0.461 µM [falling, full curve, poor fit] | –
O=C(CSc1nncn1-c1ccccn1)Nc1cccc(Cl)c1 | -6.25% | – | –
CCn1c(-c2ccccc2)csc1=Nc1ccc(O)cc1 | -52.2% | 0.366 µM [falling, partial curve] | 29.1 µM [falling, single point]
COC(=O)CSc1nnc(-c2cccs2)n1-c1ccc(Cl)cc1 | -111% | – | –
CCOC(=O)C1CCCN(CCC(=O)Nc2ccccc2)C1 (configuration not stated) | -28.5% | 0.00461 µM [falling, full curve, poor fit] | –
COc1ccc(C2/C=C\CN(C(=O)C3CC3)[C@H](Cc3ccccc3)C(=O)N2Cc2ccc(F)cc2)cc1 (some centres not stated) | -16.1% | – | 16.4 µM [falling, single point]
COc1ccc(CN(C)S(=O)(=O)c2nnc(NC(=O)c3cccc(C)c3)s2)cc1OC | -53.2% | 0.0517 µM [falling, full curve, poor fit] | 0.651 µM [falling, full curve]
CN(C)c1nc(OCCNC(=O)Nc2ccccc2)nc(N2CCOCC2)n1 | 4.98% | 0.164 µM [rising, full curve] | 1.64 µM [rising, partial curve]
CC1CCCN(C(=O)c2cc(S(=O)(=O)N3CCCCC3)c[nH]2)C1 (configuration not stated) | -2.99% | – | 1.16 µM [falling, partial curve]
O=C(CC1SC(N2CCCC2)=NC1=O)Nc1ccc(C(=O)N2CCCC(C(F)(F)F)C2)cc1 (configuration not stated) | 24.2% | – | –
CC(C)C(=O)NC(Nc1cccc([N+](=O)[O-])c1)C(Cl)(Cl)Cl (configuration not stated) | -8.22% | – | –
Cc1cc(C#Cc2c(-c3ccccc3)n(C)c3ccccc23)ccc1F | 33.7% | 13 µM [rising, partial curve] | –
COc1cc([N+](=O)[O-])ccc1NC(=O)NCc1ccco1 | -39.6% | – | –
COc1cc2cc(C(=O)N(C)Cc3ccccc3)[nH]c2cc1OC | 41.5% | 6.51 µM [rising, single point] | 29.1 µM [rising, single point]
O=C(N/N=C\c1ccc(O)c([N+](=O)[O-])c1)c1ccccc1-n1cccc1 | – | – | 18.4 µM [rising, single point]
Brc1ccc2c(c1)CN1CCCC1=N2 | -1.39% | – | 0.092 µM [falling, full curve, poor fit]
COc1ccc(C(CNC(=O)COc2ccccc2)N2CCOCC2)cc1 (configuration not stated) | -1.71% | – | 16.4 µM [rising, single point]
Cc1cc(C)c2nc(N(CCCN(C)C)C(=O)c3ccc4c(c3)CCCC4)sc2c1 | -83.9% | 13 µM [falling, partial curve] | –
COc1ccc(NS(=O)(=O)c2cccc(C(=O)NC3CCN(Cc4ccccc4)CC3)c2)cc1 | 8.65% | – | –
O=C1/C(=C\c2cccnc2)CN(Cc2ccccc2)C/C1=C\c1cccnc1 | – | – | 2.06 µM [falling, full curve]
CC(=O)[C@@]1(O)CC[C@H]2[C@@H]3C[C@H](C)C4=CC(=O)C=C[C@]4(C)[C@@]3(F)[C@@H](O)C[C@@]21C | -7.21% | – | 0.82 µM [falling, full curve, poor fit]
Nc1nc(NCC2CCCO2)nc(Nc2ccc(Cl)cc2)c1[N+](=O)[O-] (configuration not stated) | 49% | 3.26 µM [rising, full curve] | 4.61 µM [rising, full curve]
O=C(NCC1CCN(Cc2ccc(Cl)cc2)CC1)C1CCCN(c2ncnc3c2nc2n3CCCCC2)C1 (configuration not stated) | -5.66% | – | –
COc1cccc(Cn2c(OCC3CCCO3)nc3c2c(=O)n(C)c(=O)n3C)c1 (configuration not stated) | 4.76% | – | 2.06 µM [rising, full curve, poor fit]
O=C(NCc1ccccn1)C1CCC(=O)N1C1CCCCC1 (configuration not stated) | 15.2% | – | 29.1 µM [falling, single point]
Cc1cccc(N(CC(=O)Nc2ccccc2-c2ccccc2)S(=O)(=O)c2ccccc2)c1C | -1.66% | – | 29.1 µM [falling, single point]
Cc1ccc(CCc2nnc(SCC(=O)Nc3cccc(Cl)c3)n2-c2ccccc2)o1 | -69.2% | 6.51 µM [falling, partial curve] | 7.31 µM [falling, partial curve]
CC(=O)Nc1ccc(N=Cc2c(O)ccc3ccccc23)cc1 | -0.529% | – | –
CC(=O)c1cc2c(cc1NS(=O)(=O)c1ccc(C)cc1)OCCO2 | -6.2% | – | 1.84 µM [rising, partial curve]
